According to US9863934B2, “Screening methods for cognitive enhancers” (Dart Neuroscience (Cayman) Ltd., priority 2002, dated 2018):
Some results were stated once for a whole list of compounds, not compound by compound.

System: CREB mRNA in Neuro2a cells
Experiment: bDNA assay of CREB mRNA after transfection of CREB LNA antisense oligos (FIG. 3)
Format: cell-based, Mus musculus
Details: 0.2 :M oligo, 24 hours after transfection, relative to vehicle control
Protocol: Detection of CREB mRNA with the bDNA Assay. Mus musculus Neuro2a cells were obtained from American Type Culture Collection (ATCC, Cat. No. CCL-131; Manassas, Va.). Cells were plated in Modified Eagle's Minimum Essential Media (Minimum essential medium (Eagle) with 2 mM L-glutamine and Earle's BSS adjusted to contain 1.5 g/L sodium bicarbonate, 0.1 mM non-essential amino acids, and 1.0 mM sodium pyruvate, 90%; fetal bovine serum, […]) in a 96-microwell format at 2×10^4 cells per well. Cells were maintained at 37 C. and 5% CO2 overnight before transfecting with CREB Locked Nucleic Acid (LNA) oligonucleotides.
Cells were transfected using Lipofectamine 2000 (hivitrogen, Carlsbad, Calif.) with modifications to the manufacturer's protocol. […]
The direct quantitation of CREB messenger RNA (mRNA) following transfection of antisense oligos, was detected using the QuantiGene Expression Kit according to the manufacturer's protocol (Bayer Corporation; Tarrytown, N.Y.). […] The luminescence of each well was measured in a Wallac Victor2 V (Perkin Elmer) plate luminometer at 45 C. […]

| Substance | reduction of endogenous CREB RNA levels |
| --- | --- |
| TggCACTgTTACAgTggT (LNA modifications, as printed in the source, key not given here) [CREB17, CREB LNA antisense oligonucleotide; single base mismatch to human] | at least 50% |
| CCTCCgCCgCgTCACTCA (LNA modifications, as printed in the source, key not given here) [CREB1, CREB Locked Nucleic Acid (LNA) antisense oligonucleotide] | at least 50% |
